This assay has as its system Madison 109 lung carcinoma i.m., mice, median survival. Description: NCI In Vivo Anticancer Drug Screen. Data for tumor model Madison 109 Lung Carcinoma (intramuscular) in unknown mice. The note with it: T/C endpoint: median survival time, vehicle: water, higher T/C = longer survival. How it is done:
The antitumor activity of compounds was measured in mice bearing transplantable tumors. Survival or tumor size were measured and the results are expressed as the measurement made in the treated group (T) divided by the measurement made in the vehicle treated control group (C). The tumor model used in this assay is Madison 109 Lung Carcinoma (intramuscular) in unknown mice

Where [1] appears, read: dose: 10.5 mg/kg/injection, schedule: Q01DX005 (ip), evaluated on day 5.
The mark [2] stands for this setting: dose: 10.5 mg/kg/injection, schedule: Q01DX005 (ip), evaluated on day 75.

The structures appear in SMILES notation. The list is a part of this screen's results and no random one: it gathers tests that were run many times, whatever their T/C, doses with no T/C, and many T/C values between a quarter and a half above the control. Further doses and runs are listed elsewhere. T/C gives the treated animals as a percentage of the vehicle group. Some doses have a count of surviving animals in place of a T/C: the source holds a T/C of zero for them, seemingly a mark for toxic or unscored doses. Some doses without a T/C left all or most animals alive at the check, yet need not have been tolerated: survival well below the control is almost never listed, so the zero probably covers shortened survival too. Survivors were counted at the toxicity check, usually on the fifth day, unless a day is given; later deaths do not show. Schedules are NCI's codes, read here as Q, the interval in days (D) or hours (H), X, the number of doses. Where survival is the endpoint, this PubChem deposit counts one and a half times the control or more as active, and values a quarter to a half above the control carry no call in these data; other NCI protocols may use other cut-offs. Some entries were tested several times; their values stand side by side, smallest first. Some T/C values are followed by the survivors on the day toxicity was checked, most often the fifth; where none is given, no animal had died by that day. *1 amine or outer side, *2 acyl side, *3 side chain or, on linkers, in order; H or OH if unused. Where a SMILES comes first, the peptide text is derived from it. Bridges are numbered along the chain shown (N, C = ends). Roman numbers before positions name the chains, in order. [ ]: non-standard residue; d: D form. Actinocin(9to1) = Cc1c2oc3c(C)ccc(C(=O)[*:1])c3nc-2c(C(=O)[*:2])c(N)c1=O; aThr = C[C@H](O)[C@H](N)C(=O)O; NMeV = CN[C@H](C(=O)O)C(C)C; Sar = CNCC(=O)O

Turning to `COc1cccc2c1C(=O)c1c(O)c3c(c(O)c1C2=O)CC(O)(C(=O)CO)CC3OC1CC(N)C(O)C(C)O1` (stereo unspecified), the T/C runs as follows: (dose: 8.0 mg/kg/injection, schedule: Q01DX005 (ip), evaluated on day 5) 126 % of control; (dose: 8.0 mg/kg/injection, schedule: Q01DX005 (ip), evaluated on day 75) 126 % of control; under setting [1], 130 % of control; under setting [2], 130 % of control; (dose: 16.5 mg/kg/injection, schedule: Q01DX005 (ip), evaluated on day 5) 132 % of control; (dose: 16.5 mg/kg/injection, schedule: Q01DX005 (ip), evaluated on day 75) 132 % of control. Besides, the T/C (dose: 24.0 mg/kg/injection, schedule: Q01DX005 (ip), evaluated on day 5) is 136 % of control; the T/C (dose: 24.0 mg/kg/injection, schedule: Q01DX005 (ip), evaluated on day 75) is 136 % of control; the T/C (dose: 27.5 mg/kg/injection, schedule: Q01DX005 (ip), evaluated on day 5) is 149 % of control; the T/C (dose: 27.5 mg/kg/injection, schedule: Q01DX005 (ip), evaluated on day 75) is 149 % of control; the T/C (dose: 31.5 mg/kg/injection, schedule: Q01DX005 (ip), evaluated on day 5) is 141 % of control; the T/C (dose: 31.5 mg/kg/injection, schedule: Q01DX005 (ip), evaluated on day 75) is 141 % of control. The T/C reads like this: (dose: 40.0 mg/kg/injection, schedule: Q01DX005 (ip), evaluated on day 5) 147 % of control; (dose: 40.0 mg/kg/injection, schedule: Q01DX005 (ip), evaluated on day 75) 147 % of control.

As for `COc1cccc2c1C(=O)c1c(O)c3c(c(O)c1C2=O)CC(O)(C(C)=O)CC3OC1CC(N)C(O)C(C)O1` (stereo unspecified), the T/C is 129 % of control under setting [1] and 129 % of control under setting [2]. For the same compound, the survivor count is recorded as 6 of 6 (dose: 24.0 mg/kg/injection, schedule: Q01DX005 (ip)) and 6 of 6 (dose: 27.5 mg/kg/injection, schedule: Q01DX005 (ip)).

For the compound `Cc1c2oc3c(C)ccc(C(=O)N[C@@H]4C(=O)N[C@H](C(C)C)C(=O)N5CCC[C@H]5C(=O)N(C)CC(=O)N(C)[C@@H](C(C)C)C(=O)O[C@H]4C)c3nc-2c(C(=O)N[C@@H]2C(=O)N[C@H](C(C)C)C(=O)N3CCC[C@H]3C(=O)N(C)CC(=O)N(C)[C@@H](C(C)C)C(=O)O[C@H]2C)c(N)c1=O` (I: [aThr][dV]P[Sar][NMeV] / II: [aThr][dV]P[Sar][NMeV]; ester I:1-I:C, II:1-II:C; linker I:N-II:N via Actinocin(9to1)), the T/C (dose: 0.02 mg/kg/injection, schedule: Q01DX009 (ip), evaluated on day 5) was 108 and 120 % of control; the T/C (dose: 0.02 mg/kg/injection, schedule: Q01DX009 (ip), evaluated on day 57) is 108 % of control; the T/C (dose: 0.02 mg/kg/injection, schedule: Q01DX009 (ip), evaluated on day 66) is 120 % of control; the T/C (dose: 0.02 mg/kg/injection, schedule: Q01DX009 (ip), evaluated on day 68) was 98 % of control; the T/C (dose: 0.03 mg/kg/injection, schedule: Q01DX009 (ip), evaluated on day 5) was 102 and 112 % of control; the T/C (dose: 0.03 mg/kg/injection, schedule: Q01DX009 (ip), evaluated on day 57) was 102 % of control. Further, the T/C (dose: 0.03 mg/kg/injection, schedule: Q01DX009 (ip), evaluated on day 64) was 121 % of control; the T/C (dose: 0.03 mg/kg/injection, schedule: Q01DX009 (ip), evaluated on day 66) is 112 % of control; the T/C (dose: 0.03 mg/kg/injection, schedule: Q01DX009 (ip), evaluated on day 68) was 109 % of control [7 of 8 alive]; the T/C (dose: 0.04 mg/kg/injection, schedule: Q01DX009 (ip), evaluated on day 5) is 118 and 123 % of control; the T/C (dose: 0.04 mg/kg/injection, schedule: Q01DX009 (ip), evaluated on day 57) was 123 % of control; the T/C (dose: 0.04 mg/kg/injection, schedule: Q01DX009 (ip), evaluated on day 64) is 119 % of control. The T/C reads like this: (dose: 0.04 mg/kg/injection, schedule: Q01DX009 (ip), evaluated on day 66) 118 % of control; (dose: 0.04 mg/kg/injection, schedule: Q01DX009 (ip), evaluated on day 68) 91 % of control; (dose: 0.04 mg/kg/injection, schedule: Q01DX009 (ip), evaluated on day 78) 116 % of control; (dose: 0.05 mg/kg/injection, schedule: Q01DX009 (ip), evaluated on day 5) 129 and 134 % of control; (dose: 0.05 mg/kg/injection, schedule: Q01DX009 (ip), evaluated on day 57) 129 % of control; (dose: 0.05 mg/kg/injection, schedule: Q01DX009 (ip), evaluated on day 64) 115 % of control. The T/C is, setting by setting: (dose: 0.05 mg/kg/injection, schedule: Q01DX009 (ip), evaluated on day 66) 134 % of control; (dose: 0.05 mg/kg/injection, schedule: Q01DX009 (ip), evaluated on day 68) 106 % of control; (dose: 0.05 mg/kg/injection, schedule: Q01DX009 (ip), evaluated on day 78) 135 % of control; (dose: 0.06 mg/kg/injection, schedule: Q01DX009 (ip), evaluated on day 5) 106 and 123 % of control; (dose: 0.06 mg/kg/injection, schedule: Q01DX009 (ip), evaluated on day 57) 123 % of control; (dose: 0.06 mg/kg/injection, schedule: Q01DX009 (ip), evaluated on day 64) 118 % of control. In addition, the T/C is 106 % of control (dose: 0.06 mg/kg/injection, schedule: Q01DX009 (ip), evaluated on day 66); 136 % of control (dose: 0.08 mg/kg/injection, schedule: Q03DX009 (ip)); 136 % of control (dose: 0.1 mg/kg/injection, schedule: Q02DX009 (ip)). Moreover, the survivor count by setting is: (dose: 0.06 mg/kg/injection, schedule: Q01DX009 (ip)) 10 of 10; (dose: 0.1 mg/kg/injection, schedule: Q03DX009 (ip)) 8 of 8; (dose: 0.12 mg/kg/injection, schedule: Q03DX009 (ip)) 8 of 8; (dose: 0.12 mg/kg/injection, schedule: Q04DX009 (ip)) 8 of 8; (dose: 0.14 mg/kg/injection, schedule: Q03DX009 (ip)) 8 of 8; (dose: 0.16 mg/kg/injection, schedule: Q04DX009 (ip)) 8 of 8. Moreover, the survivor count (dose: 0.2 mg/kg/injection, schedule: Q04DX009 (ip)) is listed as 8 of 8; the survivor count (dose: 0.6 mg/kg/injection, schedule: Q01DX001 (ip)) is on record as 8 of 8; the survivor count (dose: 0.8 mg/kg/injection, schedule: Q01DX001 (ip)) is 5 of 8.

`CC[C@H]1CN2CCc3cc(OC)c(OC)cc3[C@@H]2C[C@@H]1C[C@H]1NCCc2cc(OC)c(OC)cc21`: under “dose: 1.0 mg/kg/injection, schedule: Q01DX009 (ip)”, the survivor count is given as 5 of 8.

In the case of `CSCS(=O)C[C@H](CO)NC(=O)/C=C/c1c(C)[nH]c(=O)[nH]c1=O` (stereo partly specified), the survivor count (dose: 0.4 mg/kg/injection, schedule: Q01DX009 (ip)) was 8 of 8.

The values above are taken from PubChem BioAssay AID300 (DTP/NCI, 2004).
